PubChem BioAssay AID686938, Drosophila RNAi Screening Center, 2013
Test: 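Knock-downs reducing store-operated calcium influx in Drosophila cells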 (primary screen). Cell system: Drosophila S2R+ cells. Reagent: long dsRNA against Drosophila genes, about 0.25 µg dsRNA per well, roughly 10,000 cells. Time to read-out: 5 days of knock-down before the calcium assay. Challenge: thapsigargin (SERCA pump blocker) to empty calcium stores; entry signal taken 4 min after adding it. Detection: 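Duplicate raw fluo-4 intensities per well from a plate reader, at rest and four minutes after thapsigargin emptied calcium stores; entry-to-rest ratio filled for only some wells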. Direction: calcium entry signal: higher = stronger calcium signal after store depletion; entry to resting ratio: higher = more calcium entry relative to resting level; resting calcium signal: higher = higher resting calcium signal. Call rule: 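Called when the plate z-score of the entry-to-rest ratio, mean of duplicates, falls below −3; wells with low overall dye signal (Fmax z below −2) or more than five off-targets excluded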. Meaning of the calls: active = strongly reduced calcium entry; inactive = no strong reduction.
The deposit covers about 23,000 reagents; this is an unselected part of those that have a named target and a result. In the full data, 75 (0.33%) got an active call. 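Raw plate signals without normalisation; calls rest on plate z-scores that were not deposited; ratio present for only 364 wells.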 Unmarked entries are inactive. Not given: the dose of the treatment.

gene	DRSC id	calcium entry signal, replicate 1 (fluorescence units)	calcium entry signal, replicate 2 (fluorescence units)	entry to resting ratio	resting calcium signal, replicate 1 (fluorescence units)	resting calcium signal, replicate 2 (fluorescence units)
CG30043	DRSC06285	2.80e7	4.49e7		1.50e7	1.80e7
Cpr65Az	DRSC09882	2.94e7	4.05e7		1.29e7	1.55e7
Cpr65Az	DRSC22057	4.00e7	2.81e7		2.42e7	1.59e7
svr	DRSC17293	4.08e7	4.49e7		2.25e7	1.96e7
svr	DRSC18841	4.84e7	5.32e7	2.2	2.19e7	2.25e7
CG15098	DRSC06527	2.43e7	2.58e7		1.71e7	1.45e7
modSP	DRSC16726	2.44e7	3.85e7		1.31e7	4.48e7
modSP	DRSC16857	2.51e7	4.01e7		1.18e7	5.52e7
modSP	DRSC21489	3.44e7	3.13e7		1.76e7	1.41e7
CG12540	DRSC19471	2.83e7	3.56e7		1.48e7	1.49e7
CG12213	DRSC14478	2.82e7	5.72e7		1.29e7	3.02e7
CG12213	DRSC22109	3.83e7	5.72e7		1.80e7	3.06e7
CG6179	DRSC19973	5.11e7	3.52e7		2.29e7	1.50e7
pcs	DRSC07042	4.44e7	3.68e7		2.09e7	1.77e7

The list goes on; the last 3 above are carried over.
gene	DRSC id	calcium entry signal, replicate 1 (fluorescence units)	calcium entry signal, replicate 2 (fluorescence units)	entry to resting ratio	resting calcium signal, replicate 1 (fluorescence units)	resting calcium signal, replicate 2 (fluorescence units)
CG12213	DRSC22109	3.83e7	5.72e7		1.80e7	3.06e7
CG6179	DRSC19973	5.11e7	3.52e7		2.29e7	1.50e7
pcs	DRSC07042	4.44e7	3.68e7		2.09e7	1.77e7
Ir75c	DRSC10190	3.89e7	5.29e7		1.95e7	2.26e7
Lsp2	DRSC09841	2.77e7	4.68e7		1.52e7	1.87e7
Lsp2	DRSC11216	2.76e7	4.24e7		1.49e7	1.91e7
Rassf	DRSC15612	4.37e7	3.82e7		2.00e7	1.84e7
CG16894	DRSC06634	5.54e7	5.06e7		2.47e7	2.42e7
CG16894	DRSC21785	3.33e7	4.85e7		1.79e7	2.03e7
obe	DRSC15736	3.40e7	4.91e7		1.48e7	2.13e7
Grip91	DRSC20249	3.73e7	3.60e7		1.70e7	1.89e7
Atg1	DRSC09809	5.14e7	3.65e7		3.29e7	1.53e7
Atg1	DRSC09810	2.18e7	3.32e7		1.16e7	1.48e7
